Measurements reported in publication PMC6901512.
Results are given in words; binding and its absence hold for the method and conditions named. For part of these data: Binding seen in cells or lysates may run through a third protein. Some binding calls cover weakened binding; strength is not graded here.

Amino acid sequences for entries named in this document (tags omitted).
UniProt P03165: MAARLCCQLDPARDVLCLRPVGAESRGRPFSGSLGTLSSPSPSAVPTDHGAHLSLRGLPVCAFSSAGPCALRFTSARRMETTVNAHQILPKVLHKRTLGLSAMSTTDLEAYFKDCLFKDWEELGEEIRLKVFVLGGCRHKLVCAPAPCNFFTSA

Experiments:
[1] = molecular target: HBx-Flag (hepatitis B virus X protein, wild type) (hepatitis B virus) (UniProt P03165); assay: semi-denaturing detergent agarose gel electrophoresis (SDD-AGE); Huh7 cells transfected with HBx-Flag or HBx-Mito-Flag for 36 h, lysed directly in sample buffer without β-mercaptoethanol (2% SDS), 2% agarose gel, blot
[2] = molecular target: T1, endogenous MARCH5 (human (endogenous in HEK293T)) (UniProt Q9NX47); assay: co-IP; HEK293T cells transfected with HBx-Flag; lysates immunoprecipitated with anti-MARCH5 antibody (endogenous MARCH5)
T1 sequence: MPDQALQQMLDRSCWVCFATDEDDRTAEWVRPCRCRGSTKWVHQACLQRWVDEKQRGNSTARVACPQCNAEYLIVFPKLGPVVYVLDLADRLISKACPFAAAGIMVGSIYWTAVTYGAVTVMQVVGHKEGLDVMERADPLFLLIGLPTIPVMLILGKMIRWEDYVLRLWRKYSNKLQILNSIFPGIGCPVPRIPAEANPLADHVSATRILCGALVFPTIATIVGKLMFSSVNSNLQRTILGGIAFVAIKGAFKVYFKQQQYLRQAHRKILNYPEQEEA

[3] = molecular target: HBx-Flag (hepatitis B virus X protein, wild type) (hepatitis B virus) (UniProt P03165); assay: cross-linking; Huh7 cell lysates incubated with 1 mM DSS for 30 min at room temperature, quenched with 10 mM Tris-HCl, sample buffer without SDS and β-mercaptoethanol, SDS-PAGE, blot

Measured: binding

HBx-Flag (hepatitis B virus X protein, wild type) (from UniProt P03165 1-154)
binds: all assays above
